Reference: the supplement of paper PMC10849652
The other results are listed elsewhere or left out.

The chains behind the UniProt entries cited, without tags or fusion partners. Where a name states a change or a piece, a line headed by the entry shows the natural chain unless it says otherwise.
UniProt Q96RT8, whole entry, looked up: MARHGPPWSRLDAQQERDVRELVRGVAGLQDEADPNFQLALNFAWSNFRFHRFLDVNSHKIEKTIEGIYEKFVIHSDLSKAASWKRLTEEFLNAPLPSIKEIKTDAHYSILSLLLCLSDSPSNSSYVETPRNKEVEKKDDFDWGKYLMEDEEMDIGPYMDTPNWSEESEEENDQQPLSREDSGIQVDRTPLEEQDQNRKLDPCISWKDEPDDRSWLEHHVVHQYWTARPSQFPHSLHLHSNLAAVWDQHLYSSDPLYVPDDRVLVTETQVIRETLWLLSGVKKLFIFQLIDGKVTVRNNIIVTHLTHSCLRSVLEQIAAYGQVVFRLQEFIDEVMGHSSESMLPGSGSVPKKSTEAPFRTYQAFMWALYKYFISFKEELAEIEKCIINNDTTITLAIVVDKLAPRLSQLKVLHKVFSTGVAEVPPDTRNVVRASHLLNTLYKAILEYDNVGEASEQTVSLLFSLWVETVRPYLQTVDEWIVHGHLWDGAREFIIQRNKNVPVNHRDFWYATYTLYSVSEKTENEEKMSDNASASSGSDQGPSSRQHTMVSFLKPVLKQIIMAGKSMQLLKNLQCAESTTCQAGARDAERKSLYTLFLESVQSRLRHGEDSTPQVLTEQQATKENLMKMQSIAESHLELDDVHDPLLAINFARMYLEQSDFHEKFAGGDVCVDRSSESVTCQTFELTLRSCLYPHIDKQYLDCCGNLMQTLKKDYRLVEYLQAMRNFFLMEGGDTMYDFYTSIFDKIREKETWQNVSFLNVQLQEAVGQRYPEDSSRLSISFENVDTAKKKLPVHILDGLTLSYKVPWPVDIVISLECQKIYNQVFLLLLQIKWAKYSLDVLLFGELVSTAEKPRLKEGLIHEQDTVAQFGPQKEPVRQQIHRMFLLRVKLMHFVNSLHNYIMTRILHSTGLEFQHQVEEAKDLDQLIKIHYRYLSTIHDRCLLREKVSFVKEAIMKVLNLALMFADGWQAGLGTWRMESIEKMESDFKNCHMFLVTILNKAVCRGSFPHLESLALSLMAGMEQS
UniProt Q3B726, whole entry, looked up: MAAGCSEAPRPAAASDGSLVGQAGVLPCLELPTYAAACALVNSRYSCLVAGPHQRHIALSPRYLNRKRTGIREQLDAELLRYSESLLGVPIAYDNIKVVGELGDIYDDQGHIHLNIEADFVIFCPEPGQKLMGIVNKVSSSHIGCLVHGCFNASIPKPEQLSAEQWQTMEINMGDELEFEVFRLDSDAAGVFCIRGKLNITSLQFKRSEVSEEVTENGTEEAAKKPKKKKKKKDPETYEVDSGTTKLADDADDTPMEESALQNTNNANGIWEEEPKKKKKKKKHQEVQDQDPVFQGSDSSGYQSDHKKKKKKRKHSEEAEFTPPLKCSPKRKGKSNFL
UniProt Q96ET8: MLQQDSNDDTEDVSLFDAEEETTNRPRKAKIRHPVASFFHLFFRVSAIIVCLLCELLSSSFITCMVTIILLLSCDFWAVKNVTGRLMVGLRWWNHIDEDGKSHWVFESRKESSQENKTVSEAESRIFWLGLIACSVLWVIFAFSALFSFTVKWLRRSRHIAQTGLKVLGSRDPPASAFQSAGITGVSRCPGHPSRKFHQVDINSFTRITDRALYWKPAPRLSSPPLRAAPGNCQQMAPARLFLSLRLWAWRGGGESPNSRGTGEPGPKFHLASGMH
UniProt P51668: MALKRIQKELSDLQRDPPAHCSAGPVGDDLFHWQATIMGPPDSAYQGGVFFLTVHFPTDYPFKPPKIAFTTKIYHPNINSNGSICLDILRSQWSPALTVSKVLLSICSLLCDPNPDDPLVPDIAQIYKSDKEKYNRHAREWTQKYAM
UniProt P29597: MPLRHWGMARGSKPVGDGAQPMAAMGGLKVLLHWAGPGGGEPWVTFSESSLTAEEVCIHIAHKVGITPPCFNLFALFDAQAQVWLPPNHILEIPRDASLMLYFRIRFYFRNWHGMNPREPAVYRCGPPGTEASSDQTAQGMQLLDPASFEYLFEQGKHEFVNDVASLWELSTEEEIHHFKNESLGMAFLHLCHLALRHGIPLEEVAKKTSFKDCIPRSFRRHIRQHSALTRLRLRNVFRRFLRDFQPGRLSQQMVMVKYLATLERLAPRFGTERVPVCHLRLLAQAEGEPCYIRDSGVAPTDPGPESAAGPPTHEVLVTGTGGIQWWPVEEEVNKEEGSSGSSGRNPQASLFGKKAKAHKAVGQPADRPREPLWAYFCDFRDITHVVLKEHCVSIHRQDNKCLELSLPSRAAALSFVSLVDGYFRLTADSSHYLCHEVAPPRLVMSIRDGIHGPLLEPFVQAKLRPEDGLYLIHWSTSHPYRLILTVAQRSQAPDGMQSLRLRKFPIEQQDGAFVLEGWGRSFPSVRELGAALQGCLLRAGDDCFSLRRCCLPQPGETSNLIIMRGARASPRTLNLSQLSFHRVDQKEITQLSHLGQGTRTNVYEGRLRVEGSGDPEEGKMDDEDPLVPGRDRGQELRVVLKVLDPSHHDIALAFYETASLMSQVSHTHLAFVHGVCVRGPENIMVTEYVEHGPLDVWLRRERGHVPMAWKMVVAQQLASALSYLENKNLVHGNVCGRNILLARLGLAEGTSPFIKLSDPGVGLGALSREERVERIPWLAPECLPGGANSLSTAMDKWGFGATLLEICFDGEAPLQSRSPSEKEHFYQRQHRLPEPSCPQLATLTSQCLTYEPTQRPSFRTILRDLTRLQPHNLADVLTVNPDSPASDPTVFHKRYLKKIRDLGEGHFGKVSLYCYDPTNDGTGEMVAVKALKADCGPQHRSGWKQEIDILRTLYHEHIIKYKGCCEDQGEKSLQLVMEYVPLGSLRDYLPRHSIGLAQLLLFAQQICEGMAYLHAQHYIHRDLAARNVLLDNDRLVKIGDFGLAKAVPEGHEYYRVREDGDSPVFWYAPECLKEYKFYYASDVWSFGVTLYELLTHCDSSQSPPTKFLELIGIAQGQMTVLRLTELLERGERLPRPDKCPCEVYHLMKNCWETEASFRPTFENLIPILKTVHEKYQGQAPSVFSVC
UniProt Q86VQ3: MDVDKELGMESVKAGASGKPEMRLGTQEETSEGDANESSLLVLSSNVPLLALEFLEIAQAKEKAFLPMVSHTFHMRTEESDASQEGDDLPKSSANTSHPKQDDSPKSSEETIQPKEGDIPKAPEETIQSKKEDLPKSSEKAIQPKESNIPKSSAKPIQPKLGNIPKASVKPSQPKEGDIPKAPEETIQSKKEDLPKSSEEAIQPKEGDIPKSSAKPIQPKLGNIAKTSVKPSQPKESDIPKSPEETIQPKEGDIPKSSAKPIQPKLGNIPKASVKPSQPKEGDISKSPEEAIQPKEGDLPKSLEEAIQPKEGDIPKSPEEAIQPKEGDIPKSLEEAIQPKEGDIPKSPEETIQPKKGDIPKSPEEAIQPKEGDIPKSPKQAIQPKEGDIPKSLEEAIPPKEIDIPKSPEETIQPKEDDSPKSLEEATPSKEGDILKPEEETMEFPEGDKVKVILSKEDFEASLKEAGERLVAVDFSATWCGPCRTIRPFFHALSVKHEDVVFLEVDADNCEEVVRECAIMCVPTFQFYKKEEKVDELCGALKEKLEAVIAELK
UniProt Q8N0Z6: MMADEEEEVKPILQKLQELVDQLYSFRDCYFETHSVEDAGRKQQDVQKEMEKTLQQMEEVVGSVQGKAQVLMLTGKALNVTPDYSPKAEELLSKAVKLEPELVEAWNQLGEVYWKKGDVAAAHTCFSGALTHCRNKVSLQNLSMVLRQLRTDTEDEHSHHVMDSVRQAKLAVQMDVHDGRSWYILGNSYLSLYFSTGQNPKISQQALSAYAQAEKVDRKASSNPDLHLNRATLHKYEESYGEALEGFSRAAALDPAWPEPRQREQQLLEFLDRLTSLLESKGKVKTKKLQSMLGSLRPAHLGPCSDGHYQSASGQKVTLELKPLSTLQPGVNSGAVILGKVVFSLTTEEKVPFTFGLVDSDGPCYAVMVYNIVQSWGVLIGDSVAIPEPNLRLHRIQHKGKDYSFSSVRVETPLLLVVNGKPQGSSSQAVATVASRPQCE
UniProt Q16881, whole entry, looked up: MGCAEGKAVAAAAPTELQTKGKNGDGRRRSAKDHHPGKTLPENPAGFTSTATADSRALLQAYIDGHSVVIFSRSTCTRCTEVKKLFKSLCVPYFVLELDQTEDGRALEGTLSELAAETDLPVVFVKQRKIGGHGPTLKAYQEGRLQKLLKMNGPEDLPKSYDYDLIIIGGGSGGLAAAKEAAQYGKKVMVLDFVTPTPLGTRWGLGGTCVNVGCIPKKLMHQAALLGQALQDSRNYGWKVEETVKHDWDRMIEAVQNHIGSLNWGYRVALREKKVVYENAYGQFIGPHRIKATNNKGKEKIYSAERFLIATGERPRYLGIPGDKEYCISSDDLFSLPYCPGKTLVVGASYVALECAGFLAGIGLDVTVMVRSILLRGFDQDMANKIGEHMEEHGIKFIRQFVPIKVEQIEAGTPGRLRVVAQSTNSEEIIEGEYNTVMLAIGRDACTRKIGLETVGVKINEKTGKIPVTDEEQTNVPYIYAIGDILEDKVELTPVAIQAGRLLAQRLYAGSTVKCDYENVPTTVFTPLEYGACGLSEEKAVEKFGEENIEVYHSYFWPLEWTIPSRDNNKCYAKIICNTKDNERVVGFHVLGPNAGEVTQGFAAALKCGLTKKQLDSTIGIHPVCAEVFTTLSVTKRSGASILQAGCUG
UniProt A2RUC4: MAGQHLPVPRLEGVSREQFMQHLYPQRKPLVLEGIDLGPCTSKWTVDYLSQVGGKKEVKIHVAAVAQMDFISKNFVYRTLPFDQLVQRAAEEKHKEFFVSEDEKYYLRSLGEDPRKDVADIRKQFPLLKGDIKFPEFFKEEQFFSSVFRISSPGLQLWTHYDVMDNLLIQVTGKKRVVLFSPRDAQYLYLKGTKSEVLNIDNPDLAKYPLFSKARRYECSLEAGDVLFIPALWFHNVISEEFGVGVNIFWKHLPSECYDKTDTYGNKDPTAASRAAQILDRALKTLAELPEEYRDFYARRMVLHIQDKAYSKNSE
UniProt Q6PGP7, whole entry, looked up: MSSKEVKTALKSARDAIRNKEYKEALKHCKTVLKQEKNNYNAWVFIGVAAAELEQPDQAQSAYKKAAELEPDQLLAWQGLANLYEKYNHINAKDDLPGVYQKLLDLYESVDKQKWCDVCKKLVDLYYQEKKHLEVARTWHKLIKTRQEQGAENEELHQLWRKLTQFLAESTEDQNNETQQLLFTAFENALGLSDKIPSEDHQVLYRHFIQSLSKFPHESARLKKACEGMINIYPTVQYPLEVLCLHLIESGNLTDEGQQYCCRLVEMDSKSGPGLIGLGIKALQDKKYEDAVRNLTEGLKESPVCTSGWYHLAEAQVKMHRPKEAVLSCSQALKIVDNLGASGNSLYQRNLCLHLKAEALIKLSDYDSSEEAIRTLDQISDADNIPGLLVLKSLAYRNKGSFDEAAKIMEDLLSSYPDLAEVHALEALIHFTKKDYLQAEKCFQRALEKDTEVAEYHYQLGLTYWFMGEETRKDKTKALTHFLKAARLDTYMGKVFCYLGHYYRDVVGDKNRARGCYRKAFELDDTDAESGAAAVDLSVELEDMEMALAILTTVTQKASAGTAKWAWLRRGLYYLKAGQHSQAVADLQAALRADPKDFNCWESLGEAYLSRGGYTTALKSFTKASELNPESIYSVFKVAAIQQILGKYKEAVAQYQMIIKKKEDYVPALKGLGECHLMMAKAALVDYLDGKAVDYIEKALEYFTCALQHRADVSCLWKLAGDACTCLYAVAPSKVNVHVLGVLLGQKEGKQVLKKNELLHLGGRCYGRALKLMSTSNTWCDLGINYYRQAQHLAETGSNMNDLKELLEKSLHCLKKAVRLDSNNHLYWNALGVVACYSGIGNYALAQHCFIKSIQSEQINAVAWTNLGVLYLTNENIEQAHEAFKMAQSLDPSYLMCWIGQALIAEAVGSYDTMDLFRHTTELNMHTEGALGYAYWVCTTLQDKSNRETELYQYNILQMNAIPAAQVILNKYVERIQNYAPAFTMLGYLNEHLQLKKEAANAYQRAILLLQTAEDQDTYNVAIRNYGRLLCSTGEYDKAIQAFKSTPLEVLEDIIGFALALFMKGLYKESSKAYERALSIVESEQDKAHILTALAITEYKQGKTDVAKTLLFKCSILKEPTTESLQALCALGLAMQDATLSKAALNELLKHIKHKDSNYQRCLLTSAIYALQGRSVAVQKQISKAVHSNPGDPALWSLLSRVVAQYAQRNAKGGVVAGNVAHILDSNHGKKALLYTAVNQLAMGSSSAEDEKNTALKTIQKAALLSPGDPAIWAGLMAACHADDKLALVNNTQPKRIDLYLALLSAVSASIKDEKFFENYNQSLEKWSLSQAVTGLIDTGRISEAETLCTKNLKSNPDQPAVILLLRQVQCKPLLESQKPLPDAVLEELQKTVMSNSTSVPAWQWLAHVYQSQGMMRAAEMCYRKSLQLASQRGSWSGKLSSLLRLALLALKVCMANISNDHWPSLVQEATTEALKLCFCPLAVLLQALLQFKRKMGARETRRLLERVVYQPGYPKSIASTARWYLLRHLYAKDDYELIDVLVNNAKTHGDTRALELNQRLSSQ

compound: C[C@H](C1=CC=C(C=C1)C(=O)NC2=C3C=CNC3=NC=C2)N; assay: log2 fold change, soluble protein after heating vs DMSO (PISA); higher = thermal stabilisation; K562 cells, 10 uM, 30 min; active = over 0.2 and 3.5 SD of the protein, either way, in both replicates (recomputed)
Summary of the method: (§1)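 For each measurement, 10 μM compound was applied for 30 min to K562 cells at 2×10^6 cells/mL. Aliquots were heated for 3 min across 48°C-58°C, pooled, and extracted in PBS with 0.5% NP-40 at 4°C; the supernatant after 21,000xg for 90 min was soluble protein. This was quantified by TMTpro 16plex LC-MS/MS with channel sums equalised, and thermal stability was reported relative to control samples from duplicates, on a log2 fold-change scale.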

Target	log2 fold change
TUBGCP5 (UniProt Q96RT8)	inactive: 0.014
UBE2J2 isoform 3 (UniProt Q8N2K1)	inactive: -0.365
TSPYL1 (UniProt Q9H0U9)	inactive: 0.018
TSKU (UniProt Q8WUA8)	inactive: 0.09
TTC14 (UniProt Q96N46)	inactive: -0.012
UBE2L5, A0A1B0GUS4	inactive: -0.089
TSPAN13 (UniProt O95857)	inactive: -0.17
TWISTNB (UniProt Q3B726)	inactive: -0.024
TVP23C (UniProt Q96ET8)	inactive: 0.03
UBE2D1 (UniProt P51668)	inactive: -0.004

compound: C[C@H](Nc1ncnc2nc[nH]c12)c1cc2cccc(Cl)c2c(=O)n1-c1ccccc1 [duvelisib]; assay: as above
Summary of the method: as §1

Target	log2 fold change
TYK2 (UniProt P29597)	inactive: 0.077
TTC21B (UniProt Q7Z4L5)	inactive: 0.11
TXNDC2 (UniProt Q86VQ3)	inactive: 0.27
TTC5 (UniProt Q8N0Z6)	inactive: -0.149
TUBB8 (UniProt Q3ZCM7)	inactive: -0.02
TWISTNB (UniProt Q3B726)	inactive: -0.072

compound: Cc1cc(Nc2cc(CN3CCOCC3)c3nc(C)c(Cc4ccc(Cl)cc4F)n3n2)n[nH]1 [gandotinib]; assay: as above
Summary of the method: as §1

Target	log2 fold change
TUBGCP5 (UniProt Q96RT8)	inactive: -0.076
TXNRD1 isoform 7 (UniProt Q16881)	inactive: 0.125
UBE2J2 isoform 3 (UniProt Q8N2K1)	inactive: 0.028
TTC17 isoform 2 (UniProt Q96AE7)	inactive: 0.046
TSPAN13 (UniProt O95857)	inactive: -0.05
TYW5 (UniProt A2RUC4)	inactive: -0.115
TWISTNB (UniProt Q3B726)	inactive: -0.103
TVP23C (UniProt Q96ET8)	inactive: -0.016
UBE2D1 (UniProt P51668)	inactive: 0.047
UBAP2L (UniProt F8W726)	inactive: -0.072

compound: Cc1cc(Nc2cc(N3CCN(C)CC3)nc(Sc3ccc(NC(=O)C4CC4)cc3)n2)n[nH]1 [tozasertib]; assay: as above
Summary of the method: as §1

Target	log2 fold change
TUBGCP5 (UniProt Q96RT8)	inactive: -0.069
TTC21B (UniProt Q7Z4L5)	inactive: -0.299
TSPAN4 (UniProt O14817)	inactive: -0.03
TWNK (UniProt Q96RR1)	inactive: -0.199
TSKU (UniProt Q8WUA8)	inactive: -0.017
TTC14 (UniProt Q96N46)	inactive: 0.037
UBE2L5, A0A1B0GUS4	inactive: -0.297
TYW5 (UniProt A2RUC4)	inactive: -0.207
TWISTNB (UniProt Q3B726)	inactive: -0.136

compound: Cc1cc(SCc2sc(-c3ccc(C(F)(F)F)cc3)nc2C)ccc1OCC(=O)O; assay: as above
Summary of the method: as §1

Target	log2 fold change
U2AF1L5 (UniProt P0DN76)	inactive: 0.023
TYK2 (UniProt P29597)	inactive: 0
TTC21B (UniProt Q7Z4L5)	inactive: -0.206
TXNDC2 (UniProt Q86VQ3)	inactive: -0.024
TXNRD1 isoform 7 (UniProt Q16881)	inactive: -0.015
UBE2J2 isoform 3 (UniProt Q8N2K1)	inactive: -0.01
TTC5 (UniProt Q8N0Z6)	inactive: 0.065
TUBB8 (UniProt Q3ZCM7)	inactive: -0.118
TSPAN13 (UniProt O95857)	inactive: -0.124
TWISTNB (UniProt Q3B726)	inactive: 0.22
TVP23C (UniProt Q96ET8)	inactive: -0.092
UBE2D1 (UniProt P51668)	inactive: 0.102

compound: Cc1ccc(-n2nc(C(C)(C)C)cc2NC(=O)Nc2ccc(OCCN3CCOCC3)c3ccccc23)cc1 [doramapimod]; assay: as above
Summary of the method: as §1

Target	log2 fold change
TUBGCP5 (UniProt Q96RT8)	inactive: -0.013
U2AF1L5 (UniProt P0DN76)	inactive: -0.1
TYRO3 (UniProt Q06418)	inactive: 0.045
TSPYL4 (UniProt Q9UJ04)	inactive: -0.026
TUBGCP6 (UniProt Q96RT7)	inactive: 0.081
UBE2M (UniProt M0QX69)	inactive: -0.004
TTC17 isoform 2 (UniProt Q96AE7)	inactive: 0.028
TUBB8 (UniProt Q3ZCM7)	inactive: 0.023
TUBD1 (UniProt Q9UJT1)	inactive: 0.215
TTC37 (UniProt Q6PGP7)	inactive: -0.444

compound: Cc1ccc(C(=O)N(CCCN)[C@@H](c2nc3cc(Cl)ccc3c(=O)n2Cc2ccccc2)C(C)C)cc1 [ispinesib]; assay: as above
Summary of the method: as §1

Target	log2 fold change
TXNDC2 (UniProt Q86VQ3)	inactive: 0.014
TTC5 (UniProt Q8N0Z6)	inactive: -0.153
TTK (UniProt P33981)	inactive: -0.53
TSPAN4 (UniProt O14817)	inactive: 0.137
TWNK (UniProt Q96RR1)	inactive: -0.217
TUBB8 (UniProt Q3ZCM7)	inactive: 0.098
TSPAN13 (UniProt O95857)	inactive: -0.03
TYW5 (UniProt A2RUC4)	inactive: 0.033
TUBD1 (UniProt Q9UJT1)	inactive: -0.075
TTC26	inactive: 0.105
UBE2D1 (UniProt P51668)	inactive: 0.056
TTC37 (UniProt Q6PGP7)	inactive: -0.094

compound: Cc1ccc(NC(=O)c2ccc(CN3CC[C@H](N(C)C)C3)c(C(F)(F)F)c2)cc1Nc1nccc(-c2cncnc2)n1 [bafetinib]; assay: as above
Summary of the method: as §1

Target	log2 fold change
TUBGCP5 (UniProt Q96RT8)	inactive: -0.216
U2AF1L5 (UniProt P0DN76)	inactive: 0.047
TYK2 (UniProt P29597)	inactive: -0.054
TXNDC2 (UniProt Q86VQ3)	inactive: -0.038
TXNRD1 isoform 7 (UniProt Q16881)	inactive: -0.124
TYRO3 (UniProt Q06418)	inactive: -0.144
UBE2J2 isoform 3 (UniProt Q8N2K1)	inactive: 0.037
TSPAN4 (UniProt O14817)	inactive: 0.064
TWNK (UniProt Q96RR1)	inactive: -0.033
TUT1 (UniProt Q9H6E5)	inactive: -0.055
TTC14 (UniProt Q96N46)	inactive: -0.1
TSPAN13 (UniProt O95857)	inactive: -0.101
TWISTNB (UniProt Q3B726)	inactive: 0.064
TTC26	inactive: -0.04
UBE2D1 (UniProt P51668)	inactive: -0.065
TTC37 (UniProt Q6PGP7)	inactive: 0.008
UBAP2L (UniProt F8W726)	inactive: 0.02
